Measurements as given in PMC7042713.
No constants are given. Whether binding was seen depends on the method and setting. Some entries that bind do so weakly or less than the wild type.

Tests used:
[1] = molecular target: AtSOK4 DIX domain (Arabidopsis thaliana SOSEKI4), wild type (Arabidopsis thaliana) (UniProt Q8GY65); test: SEC-MALS; purified recombinant DIX domains at 2 mg/mL unless stated otherwise; PBS with 1 mM DTT; Superdex200 10/300 GL; 100 ul sample, 0.5 mL/min; both purified
[2] = molecular target: AtSOK4 DIX domain D85A (crystallised) (Arabidopsis thaliana) (UniProt Q8GY65); test: crystal structure; AtSOK4 DIX D85A, tag removed, 9 mg/mL; crystals in 0.69 M ammonium sulfate, 200 mM NaCl, 100 mM HEPES pH 7.0; 18°C; selenomethionine phasing; both purified

binding [1] | binding [2] | Binder
binds | – | AtSOK4 DIX domain (Arabidopsis thaliana SOSEKI4), wild type (domain or fragment, UniProt Q8GY65 15-109) SRERIVPVVYYLSRNGRLDHPHFIEVPLSSHNGLYLKDVINRLNDLRGNGMACLYSWSSKRTYKNGFVWYDLSDEDFIFPVHGQEYVLKGSQILD
– | binds | AtSOK4 DIX domain D85A (crystallised) (domain or fragment, UniProt Q8GY65 15-109, selenomethionine labelling (to determine phasing)) SRERIVPVVYYLSRNGRLDHPHFIEVPLSSHNGLYLKDVINRLNDLRGNGMACLYSWSSKRTYKNGFVWYALSDEDFIFPVHGQEYVLKGSQILD
